Assay results reported in paper PMC12699821, “STARD4 suppresses tumorigenesis and attenuates enzalutamide resistance via lipid metabolic reprogramming and AR stabilization in prostate cancer” (Journal of Experimental & Clinical Cancer Research : CR, 2025).
No constants are given. Whether binding was seen depends on the method and setting. Binding seen in cells or lysates may run through a third protein. Some results given as binding are weak or reduced against the parent protein; the word gives no strength. For some assays here: Where a sequence is shown, tags or fusion partners need not be part of it. One block for each molecule: values may come before it.

Chains of the proteins cited; added tags and fusions are not shown.
UniProt O95155: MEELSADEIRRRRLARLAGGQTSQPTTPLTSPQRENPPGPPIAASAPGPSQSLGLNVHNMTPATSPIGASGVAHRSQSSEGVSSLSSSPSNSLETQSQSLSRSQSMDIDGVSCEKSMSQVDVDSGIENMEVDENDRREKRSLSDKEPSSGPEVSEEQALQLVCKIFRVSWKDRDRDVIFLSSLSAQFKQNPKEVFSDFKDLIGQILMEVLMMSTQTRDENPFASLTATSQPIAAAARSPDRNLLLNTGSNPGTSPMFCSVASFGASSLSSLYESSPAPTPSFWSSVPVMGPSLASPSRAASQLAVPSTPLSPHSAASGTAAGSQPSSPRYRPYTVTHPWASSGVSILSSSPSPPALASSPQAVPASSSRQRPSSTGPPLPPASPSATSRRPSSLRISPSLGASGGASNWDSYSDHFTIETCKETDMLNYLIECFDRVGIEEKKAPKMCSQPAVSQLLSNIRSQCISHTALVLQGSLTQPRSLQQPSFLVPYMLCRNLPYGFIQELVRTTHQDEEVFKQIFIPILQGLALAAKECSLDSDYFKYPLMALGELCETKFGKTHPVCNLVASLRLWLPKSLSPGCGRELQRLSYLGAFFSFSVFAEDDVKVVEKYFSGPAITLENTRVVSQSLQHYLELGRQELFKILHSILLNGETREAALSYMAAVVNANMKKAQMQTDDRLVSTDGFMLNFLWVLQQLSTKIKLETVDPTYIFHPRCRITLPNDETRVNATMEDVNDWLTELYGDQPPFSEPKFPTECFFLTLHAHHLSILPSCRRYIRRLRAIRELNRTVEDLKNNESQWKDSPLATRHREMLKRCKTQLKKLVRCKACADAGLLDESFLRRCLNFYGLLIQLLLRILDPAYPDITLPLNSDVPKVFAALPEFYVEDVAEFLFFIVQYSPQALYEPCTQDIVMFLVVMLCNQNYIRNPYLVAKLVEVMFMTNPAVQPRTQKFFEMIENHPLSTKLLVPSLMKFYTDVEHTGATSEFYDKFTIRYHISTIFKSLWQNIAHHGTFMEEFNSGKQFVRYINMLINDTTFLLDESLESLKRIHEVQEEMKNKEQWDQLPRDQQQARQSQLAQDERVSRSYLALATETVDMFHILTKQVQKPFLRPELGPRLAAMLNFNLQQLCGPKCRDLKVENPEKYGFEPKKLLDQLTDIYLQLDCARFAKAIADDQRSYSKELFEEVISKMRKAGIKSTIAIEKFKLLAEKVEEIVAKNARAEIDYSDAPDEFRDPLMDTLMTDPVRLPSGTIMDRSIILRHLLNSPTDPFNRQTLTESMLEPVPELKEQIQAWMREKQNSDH
UniProt P10275: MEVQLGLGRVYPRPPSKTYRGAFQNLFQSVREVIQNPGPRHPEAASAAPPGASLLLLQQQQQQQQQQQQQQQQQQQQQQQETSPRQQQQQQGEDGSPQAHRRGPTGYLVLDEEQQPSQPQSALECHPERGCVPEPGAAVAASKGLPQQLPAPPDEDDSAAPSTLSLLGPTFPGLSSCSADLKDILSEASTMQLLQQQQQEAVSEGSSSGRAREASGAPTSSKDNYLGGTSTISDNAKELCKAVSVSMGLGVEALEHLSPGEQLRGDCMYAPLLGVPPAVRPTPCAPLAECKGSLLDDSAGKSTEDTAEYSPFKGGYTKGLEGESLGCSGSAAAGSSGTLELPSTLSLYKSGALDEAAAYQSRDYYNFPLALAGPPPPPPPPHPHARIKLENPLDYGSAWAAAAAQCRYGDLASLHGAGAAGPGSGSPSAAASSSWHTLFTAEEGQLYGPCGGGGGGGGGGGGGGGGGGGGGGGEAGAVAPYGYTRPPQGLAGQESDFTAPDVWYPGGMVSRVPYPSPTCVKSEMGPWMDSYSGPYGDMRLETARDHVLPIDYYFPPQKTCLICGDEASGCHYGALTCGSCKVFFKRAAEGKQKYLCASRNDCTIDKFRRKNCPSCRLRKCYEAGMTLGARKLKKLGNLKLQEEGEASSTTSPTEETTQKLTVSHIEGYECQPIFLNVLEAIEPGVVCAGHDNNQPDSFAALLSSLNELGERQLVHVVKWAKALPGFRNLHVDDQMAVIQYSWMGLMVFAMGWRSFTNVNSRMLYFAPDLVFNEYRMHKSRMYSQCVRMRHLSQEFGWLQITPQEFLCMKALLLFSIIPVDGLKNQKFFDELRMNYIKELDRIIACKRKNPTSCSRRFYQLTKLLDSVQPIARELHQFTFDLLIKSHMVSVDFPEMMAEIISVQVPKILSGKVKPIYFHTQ

Key:
[1] = target: UBE4B, endogenous (human (endogenous in 22Rv1 and C4-2)) (UniProt O95155); assay: co-IP; 22Rv1 cells with STARD4 overexpression plasmid and C4-2 cells with STARD4 knockdown plasmid; IP with IgG or an anti-UBE4B antibody, western blotting
[2] = target: Flag-tagged UBE4B (human) (UniProt O95155); assay: co-IP; 22Rv1 cell lysates immunoprecipitated with an anti-Flag antibody (Flag-UBE4B or Flag-FANCG), western blotting for STARD4 and AR
[3] = target: Androgen receptor (AR), endogenous (human (endogenous in 22Rv1 and C4-2)) (UniProt P10275); assay: co-IP; 22Rv1 and C4-2 whole-cell lysates, IP with STARD4, AR or IgG antibodies overnight at 4 °C, magnetic beads, western blotting
[4] = target: Flag-tagged AR (full-length) (human (Gene ID 367 is the human gene)) (UniProt P10275); assay: co-IP; 293T cells transfected with HA-labelled STARD4 and Flag-labelled AR or AR domain plasmids, western blotting

binding [1]: binds | binding [2]: binds
Molecule: Androgen receptor (AR), endogenous (from UniProt P10275 1-920)

binding [3]: binds | binding [2]: binds
B1: StAR-related lipid transfer domain protein 4 (STARD4), endogenous (protein, UniProt Q96DR4 1-205)
chain: MEGLSDVASFATKLKNTLIQYHSIEEDKWRVAKKTKDVTVWRKPSEEFNGYLYKAQGVIDDLVYSIIDHIRPGPCRLDWDSLMTSLDILENFEENCCVMRYTTAGQLWNIISPREFVDFSYTVGYKEGLLSCGISLDWDEKRPEFVRGYNHPCGWFCVPLKDNPNQSLLTGYIQTDLRGMIPQSAVDTAMASTLTNFYGDLRKAL

binding [4]: binds
B2: HA-tagged STARD4 (protein, UniProt Q96DR4 1-205)
chain: B1 chain
